Measured values: publication PMC2265528
No constants are given. Whether binding was seen depends on the method and setting. Binding seen in cells or lysates may run through a third protein. Some entries that bind do so weakly or less than the wild type. Sequences can lack the tags named with a protein.

Molecular target: T1, Flag-Aurora-A (UniProt O14965)
T1 sequence: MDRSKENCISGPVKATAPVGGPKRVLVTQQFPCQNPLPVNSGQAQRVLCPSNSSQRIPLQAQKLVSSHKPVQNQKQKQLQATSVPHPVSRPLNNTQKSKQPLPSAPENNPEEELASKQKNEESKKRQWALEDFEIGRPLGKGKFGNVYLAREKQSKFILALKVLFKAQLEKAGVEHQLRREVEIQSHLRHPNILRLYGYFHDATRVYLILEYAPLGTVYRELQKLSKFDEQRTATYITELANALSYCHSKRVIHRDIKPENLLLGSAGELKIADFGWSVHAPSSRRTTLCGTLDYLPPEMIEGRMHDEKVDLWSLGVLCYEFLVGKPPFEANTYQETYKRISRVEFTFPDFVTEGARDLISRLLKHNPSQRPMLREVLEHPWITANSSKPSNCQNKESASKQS
Assay: co-IP; HEK293 cells co-transfected with pcDNA3.1-GADD45A and Flag-Aurora-A (or empty Flag vector); anti-Flag immunoprecipitates blotted with anti-GADD45A or anti-Flag antibodies

binding: binds
B1: GADD45A (Growth arrest and DNA-damage-inducible gene 45 alpha) (protein, UniProt P24522-1 1-165)
chain: MTLEEFSAGEQKTERMDKVGDALEEVLSKALSQRTITVGVYEAAKLLNVDPDNVVLCLLAADEDDDRDVALQIHFTLIQAFCCENDINILRVSNPGRLAELLLLETDAGPAASEGAEQPPDLHCVLVTNPHSSQWKDPALSQLICFCRESRYMDQWVPVINLPER
